In the supplement of paper PMC12889115:
Some of the results follow. Values are raw readings; no control value is given beside them.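 In the initial screen, polymyxin B was used at a concentration that permeabilizes Salmonella's outer membrane but not its inner membrane. Maximum growth was set by DMSO wells with or without polymyxin B. Since plates varied, data were ranked per plate, and compounds giving the lowest OD600 advanced as hits.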

System: Salmonella enterica serovar Typhimurium SL1344
Assay: bacterial growth OD600 after 18 h with compound and polymyxin B; higher = more bacterial growth (less inhibition)
Settings: 50 µM, Mueller-Hinton broth

Row | SMILES | bacterial growth OD600 (polymyxin B 0.75 µg/mL) | bacterial growth OD600 (polymyxin B 1 µg/mL)
1 | CC(C)Cc1ccc(CN2CCOc3ccc(CN4CCC(O)(c5cccnc5)CC4)cc3C2)cc1 | 0.006 | –
2 | CC(C)C[C@H](NC(=O)C1(N(C)C)Cc2ccccc2C1)C(N)=O | 0.82 | –
3 | CCCNC(=O)N1CCCC(Cc2ccc(F)cc2F)(C(=O)OCC)C1 (stereo not given) | – | 0.877
4 | CCn1cc(CN(C)CC2CCN(CCc3cccc(F)c3)CC2)cn1 | – | 1.14
5 | COC(=O)c1ccc(CNC(=O)CN2Cc3ccccc3OC(c3ccccc3F)C2)cc1 (stereo not given) | 0.849 | –
6 | COC(=O)CCC(=O)NC1CCCN(Cc2ccc(CC(C)C)cc2)C1 (stereo not given) | – | 1.15
7 | CCC1CN(CC(=O)NCCCOc2cccnc2)Cc2cc(OC)ccc2O1 (stereo not given) | 0.871 | –
8 | O=C(c1cc(COc2ccc(-n3cncn3)cc2)on1)N1CCCCC1c1ccccn1 (stereo not given) | – | 0.849
9 | CSc1ccccc1C(=O)NCc1c(C)ncc2c1CCN(C(=O)Cc1ccccc1)C2 | 0.829 | –
10 | CCN1C(=O)CC(CC(=O)N2CCN(C3CCCCC3)C(=O)C2)(c2cccc(C(F)(F)F)c2)C1=O (stereo not given) | 0.984 | –
11 | COc1cccc(CN2CCC(CO)(CCCc3ccccc3)CC2)c1OC | – | 0.861
12 | Cc1c(CC(=O)NCc2ccncn2)c2c(n1Cc1ccccc1)CCCC2=O | – | 1.09
13 | Cc1ccc(-n2ncc3c2CCCC3NC(=O)CCN2CCCC2=O)cc1C (stereo not given) | – | 0.903
14 | CCC1CN(CC(=O)NCCc2cccs2)Cc2cc(OC)ccc2O1 (stereo not given) | 0.789 | –
15 | Cc1noc(C)c1C(=O)N(C)CC1CCCN(CCc2ccc(F)cc2)C1 (stereo not given) | – | 0.772
16 | COc1ccc(OC)c(-c2cc(Cl)c3c(c2)CC(CNC(=O)C(C)n2nc(C)cc2C)O3)c1 (stereo not given) | 0.02 | –
17 | C=CCN(CC=C)C(=O)C1CCCN(c2nc(C)c3ccc(OC)cc3n2)C1 (stereo not given) | 0.005 | –
18 | COc1cccc(CN2CCOc3ccc(CN4CCC(Oc5cccnc5)CC4)cc3C2)c1OC | 0.812 | –
19 | O=C1O[C@@H]2CN(C3CSCCSC3)C[C@@H]2N1CCc1cccc(Cl)c1 | – | 0.964
20 | CCN(CC)C1CCN(C(=O)c2csc3nc(-c4ccccc4)cn23)C1 (stereo not given) | – | 0.902
21 | COc1cc(C(=O)N2CCN(C)C(=O)[C@@H]2C)ccc1OC1CCN(C2CCCC2)CC1 | 0.828 | –
22 | COc1ccc(-c2n[nH]cc2CN(C)Cc2cccc(C(F)(F)F)c2)c(OC)c1 | – | 0.894
23 | Cc1cc(C)c2[nH]c(C(=O)NCC3CC(Cc4ccc(F)cc4)=NO3)c(C)c2c1 (stereo not given) | 0.842 | –
24 | CC(C)CCNC(=O)c1cn(CC(C)C)cc(C(=O)N2CCN(c3ccccc3)CC2)c1=O | 0.913 | –
25 | COc1ccc(CCc2nnc(CCC(=O)N(C)Cc3ccnc4ccccc34)o2)cc1 | – | 0.813
26 | CC(C)[C@H]1CN(C)CCN1C(=O)c1cc(COc2ccc(F)cc2F)[nH]n1 | – | 1.04
27 | CC(C)CCC(=O)N1CCC(N2CCCC(C(=O)NC3CC3)C2)CC1 (stereo not given) | 0.865 | –
28 | CCOC(=O)CN(C)C(=O)C1CCC(=O)N(CCc2ccc(OC)cc2)C1 (stereo not given) | – | 0.932
29 | CN(Cc1cnccn1)C(=O)CC(c1ccccc1)c1cccc(Cl)c1 (stereo not given) | – | 0.721
30 | Cc1oc(-c2ccc(NC(=O)Cc3ccccc3)cc2)nc1CNC(=O)c1cscn1 | 0.012 | –

An excerpt from above in order of number of heavy atoms, high to low.
Row | SMILES | bacterial growth OD600 (polymyxin B 0.75 µg/mL) | bacterial growth OD600 (polymyxin B 1 µg/mL)
25 | COc1ccc(CCc2nnc(CCC(=O)N(C)Cc3ccnc4ccccc34)o2)cc1 | – | 0.813
30 | Cc1oc(-c2ccc(NC(=O)Cc3ccccc3)cc2)nc1CNC(=O)c1cscn1 | 0.012 | –
11 | COc1cccc(CN2CCC(CO)(CCCc3ccccc3)CC2)c1OC | – | 0.861
